Measurements reported in PubChem BioAssay AID1259308 (NCATS, 2017).
Assay: 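Knock-downs that increase output of a recombinant reporter protein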 (primary screen). System: human HEK293 embryonic kidney cells stably expressing firefly luciferase (HEK-CMV-Luc2-Hygro). Reagent: single siRNA against human genes, 0.8 pmol siRNA per well. Duration: 72 h. Read-out: 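Reporter luminescence and viable-cell signal on separate replicate plates, given as percent of non-targeting control and median/MAD z-scores, plus per-cell luciferase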. Reading the numbers: total luciferase, z-score: higher = more reporter protein produced. Active means: 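An siRNA counts as active if its total luciferase robust z-score exceeds 3; genes with two or more such siRNAs out of three were retested with fresh siRNAs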. Calls: active = raised luciferase; inactive = no rise.
Shown is an unselected part of about 59,000 reagents. About 1,510 of all reagents (2.6%) were called active. 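Calls use total luciferase alone and ignore viability, so some active siRNAs may act by altering cell number.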 Entries without a mark were called inactive. Reagents against one gene are numbered here. Not all columns of the deposit are shown. Reagent sequences are not shown.

The opening 7 records, to show the layout:
gene	reagent no.	total luciferase, z-score
PCNX4 (pecanex 4)	1	-2.14
PCNX4 (pecanex 4)	2	-0.233
PCNX4 (pecanex 4)	3	0.0242
AADACL4 (arylacetamide deacetylase like 4)	1	0.0477
AADACL4 (arylacetamide deacetylase like 4)	2	2
AADACL4 (arylacetamide deacetylase like 4)	3	-0.284
KLK14 (kallikrein related peptidase 14)	1	-0.108

Main list, from the first entry:
gene	reagent no.	total luciferase, z-score
PCNX4 (pecanex 4)	1	-2.14
PCNX4 (pecanex 4)	2	-0.233
PCNX4 (pecanex 4)	3	0.0242
AADACL4 (arylacetamide deacetylase like 4)	1	0.0477
AADACL4 (arylacetamide deacetylase like 4)	2	2
AADACL4 (arylacetamide deacetylase like 4)	3	-0.284
KLK14 (kallikrein related peptidase 14)	1	-0.108
KLK14 (kallikrein related peptidase 14)	2	-0.208
KLK14 (kallikrein related peptidase 14)	3	0.345
RPS18P5 (ribosomal protein S18 pseudogene 5)	1	0.531
RPS18P5 (ribosomal protein S18 pseudogene 5)	2	0.233
RPS18P5 (ribosomal protein S18 pseudogene 5)	3	-0.0244
ABRA (actin binding Rho activating protein)	1	-0.185
ABRA (actin binding Rho activating protein)	2	0.72
ABRA (actin binding Rho activating protein)	3	1.52
TAS2R14 (taste 2 receptor member 14)	1	0.627
TAS2R14 (taste 2 receptor member 14)	2	-0.223
TAS2R14 (taste 2 receptor member 14)	3	-0.408
NPY2R (neuropeptide Y receptor Y2)	1	0.661
NPY2R (neuropeptide Y receptor Y2)	2	-0.543
NPY2R (neuropeptide Y receptor Y2)	3	-0.383
ZNF37A (zinc finger protein 37A)	1	1.52
ZNF37A (zinc finger protein 37A)	2	-0.416
ZNF37A (zinc finger protein 37A)	3	-1.17
ZNF502 (zinc finger protein 502)	1	-0.0445
ZNF502 (zinc finger protein 502)	2	-0.0733
ZNF502 (zinc finger protein 502)	3	-0.574
GATB (glutamyl-tRNA amidotransferase subunit B)	1	0.547
GATB (glutamyl-tRNA amidotransferase subunit B)	2	-0.213
GATB (glutamyl-tRNA amidotransferase subunit B)	3	0.304
PTEN (phosphatase and tensin homolog)	1	1.09
PTEN (phosphatase and tensin homolog)	2	0.0238
PTEN (phosphatase and tensin homolog)	3	-0.263
LINC02167 (long independently transcribed non-coding RNA 2167)	1	0.844
LINC02167 (long independently transcribed non-coding RNA 2167)	2	0.464
LINC02167 (long independently transcribed non-coding RNA 2167)	3	-0.595
PHF2 (PHD finger protein 2)	1	1.18
PHF2 (PHD finger protein 2)	2	-0.556
PHF2 (PHD finger protein 2)	3	0.15
SPTY2D1 (SPT2 chromatin protein domain containing 1)	1	0.0277
SPTY2D1 (SPT2 chromatin protein domain containing 1)	2	-0.106
SPTY2D1 (SPT2 chromatin protein domain containing 1)	3	0.402
LETM2	1	0.153
LETM2	2	0.297
LETM2	3	-0.0653
ALX3 (ALX homeobox 3)	1	-1.1
ALX3 (ALX homeobox 3)	2	-0.101
ALX3 (ALX homeobox 3)	3	2.53
LOC402279 (glutamate metabotropic receptor 8 pseudogene)	1	1.61
LOC402279 (glutamate metabotropic receptor 8 pseudogene)	2	1.44
LOC402279 (glutamate metabotropic receptor 8 pseudogene)	3	0.681
RUNDC1 (RUN domain containing 1)	1	-0.794
RUNDC1 (RUN domain containing 1)	2	-0.76
RUNDC1 (RUN domain containing 1)	3	-0.882
CCDC60 (coiled-coil domain containing 60)	1	-0.45
CCDC60 (coiled-coil domain containing 60)	2	-0.475
CCDC60 (coiled-coil domain containing 60)	3	0.062
FCGR1A (Fc gamma receptor Ia)	1	0.154
FCGR1A (Fc gamma receptor Ia)	2	0.614
FCGR1A (Fc gamma receptor Ia)	3	0.32
CHRNA9 (cholinergic receptor nicotinic alpha 9 subunit)	1	-0.97
CHRNA9 (cholinergic receptor nicotinic alpha 9 subunit)	2	0.0232
CHRNA9 (cholinergic receptor nicotinic alpha 9 subunit)	3	0.128
RNASE9 (ribonuclease A family member 9 (inactive))	1	1.8
RNASE9 (ribonuclease A family member 9 (inactive))	2	-0.492
RNASE9 (ribonuclease A family member 9 (inactive))	3	-0.325
MELTF (melanotransferrin)	1	-0.213
MELTF (melanotransferrin)	2	-0.253
MELTF (melanotransferrin)	3	0.291
PIEZO1P1	1	0.171
PIEZO1P1	2	0.818
PIEZO1P1	3	-1.15
SMG7 (SMG7 nonsense mediated mRNA decay factor)	1	0.332
SMG7 (SMG7 nonsense mediated mRNA decay factor)	2	-2.15
SMG7 (SMG7 nonsense mediated mRNA decay factor)	3	1.1
